# Several values for one entry are separate records, joined by “and”; a condition that tells them apart may be missing. Equal entries are not always repeated. About 22,000 (6.9%) of roughly 320,000 compounds were called active. The shares of active, inactive and inconclusive entries below differ from those in the screen. Calls follow the shape of the dose curve; as a rule, active = well fitted inhibition curve with a large enough effect; inconclusive = small, poorly fitted or top-dose-only effect, or another doubt; inactive = no such curve, though single readings can be large or run the other way. Potencies beside an inconclusive call are fits to weak or partial responses and may not hold up.
# Test: Primary qHTS for delayed death inhibitors of the malarial parasite plastid, 96 hour incubation
# Details: P. falciparum luciferase reporter growth; series mostly up to 28.7 µM; activity change, negative = inhibition: at the top concentration
# In short: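 Cell-based qHTS: luciferase-tagged P. falciparum in erythrocytes (2% hematocrit, 0.05% parasitemia final) incubated with compounds for 96 hours, 37 C, 5% CO2; luciferase detection reagent then added and luminescence measured.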
# % is scaled to controls: 0 for no effect and ±100 for the full control effect; potency is read from the fitted curve at half-maximal effect.
SMILES,Potency,"activity change, negative = inhibition"
Cc1cc(N2CCN(c3cccc(C(F)(F)F)c3)CC2)n2nc(C)nc2n1,"inconclusive: 0.0828 µM [inhibitor, full curve, poor fit]",
Cc1cc(Cl)ccc1OCC(=O)OC(C)C(=O)N(C)C (configuration not stated),"inconclusive: 4.65 µM [inhibitor, partial curve]",
O=C(NC1CCSc2ccccc21)c1cccc(Br)c1 (configuration not stated),"inconclusive: 20.8 µM [inhibitor, single point]",
O=C(NC(=S)N1CCCCCC1)c1ccc(Cl)cc1Cl,active: 9.28 µM,
CCC(C)[C@@H](C(=O)Nc1ccc(OC)c(OC)c1)N1Cc2ccccc2C1=O (some centres not stated),"inconclusive: 7.38 µM [inhibitor, partial curve, poor fit]",
COC(=O)C1=C(c2ccc(-c3ccccc3)c(F)c2)C[C@@H]2CC[C@H]1N2C(=O)NCCc1ccccc1,"inconclusive: 7.38 µM [inhibitor, partial curve]",
CN(C)CCOCCOc1ccccc1-c1ccccc1,"inconclusive: 13.1 µM [inhibitor, single point]",
O=C(N/N=C/C(Cl)=C/c1ccccc1)c1ccccc1F,"inconclusive: 18.5 µM [inhibitor, single point]",
Cc1cc(=O)oc2cc(OC(C)C(=O)NCC3CCC(C(=O)O)CC3)ccc12 (configuration not stated),"inconclusive: 18.5 µM [inhibitor, single point]",
Cc1ccc2c(c1)C1CN(C)CCC1N2S(=O)(=O)c1cccc(C(F)(F)F)c1 (configuration not stated),"inconclusive: 18.5 µM [inhibitor, single point]",
CCOc1cc([C@@H]2C[C@H]3CN(c4ccccc4)C(=O)[C@]34CCCN24)ccc1OC,,inactive: -2.48%
COc1ccc(-c2cc(C(F)(F)F)n3ncc(C(=O)N(C)Cc4ccccc4)c3n2)cc1,"inconclusive: 3.7 µM [inhibitor, partial curve, poor fit]",
Cc1cc(C(=O)CSc2nn3c(=O)c(C(C)(C)C)nnc3s2)c(C)n1C,"inconclusive: 2.33 µM [inhibitor, single point]",
Cn1cnnc1SCC(=O)NNC(=O)COc1ccc(Cl)cc1,,inactive: 0%
COc1ccc(N2CC(C(=O)Nc3nc4ccc(F)cc4s3)CC2=O)c(OC)c1 (configuration not stated),,inactive: -3.79%
COC(CSc1nc(N)c2c3c(sc2n1)CN(C)CC3)OC,"inconclusive: 1.85 µM [inhibitor, partial curve, poor fit]",
Cc1ccc(Cl)cc1NC(=S)N(CCCN1CCN(C)CC1)Cc1cccs1,,inactive: -0.296%
CC(Sc1nc2ccccc2[nH]1)C(=O)NC1CCCCC1C (configuration not stated),"inconclusive: 18.5 µM [inhibitor, single point]",
O=c1c2ccccc2c(C=Nc2ccc(O)cc2)c(O)n1-c1nccs1,"inconclusive: 3.29 µM [inhibitor, partial curve, poor fit]",
CN(Cc1ccc(F)cc1)Cc1nc(-c2cnccn2)no1,,inactive: 7.8%
COc1ccccc1/C=C1\SC(=O)N(CC(=O)NCCCn2ccnc2)C1=O,"inconclusive: 10.4 µM [inhibitor, single point]",
CCOc1ccc(C(=O)NCc2ccccc2OC)cc1,,inactive: 6.27%
COC(=O)C1=C(C)N(Cc2ccccc2)C(=NCCc2ccccn2)N[C@H]1c1cccc(F)c1,active: 9.28 µM and active: 8.28 µM,

SMILES,Potency,"activity change, negative = inhibition"
COc1cccc(-c2nn(-c3ccccc3)cc2CN(C)C(C)c2ccncn2)c1 (configuration not stated),"inconclusive: 18.5 µM [inhibitor, single point]",
COc1ccccc1N(CC(=O)NC1CCCCC1)C(=O)c1csnn1,"inconclusive: 18.5 µM [inhibitor, single point]",
COC(=O)c1c(NC(=O)C2c3ccccc3Oc3ccccc32)sc(C)c1C,"inconclusive: 18.5 µM [inhibitor, single point]",
CCc1ccc(/C=N/NC(=O)c2cc(C3CC3)nc3ccc(Br)cc23)s1,"inconclusive: 10.4 µM [inhibitor, single point]",
O=C(O)C1CCCC2CN3CCc4c([nH]c5ccccc45)C3C(O)C21 (configuration not stated),"inconclusive: 13.1 µM [inhibitor, single point]",
O=c1cccc(-c2ccccc2)[nH]1,"inconclusive: 18.5 µM [inhibitor, single point]",
Cc1nc2oc3c(NCC4CCCO4)ncnc3c2c2c1COC(C)(C)C2 (configuration not stated),,inactive: -14.2%
O=C(CCC(=O)c1cccs1)NCc1cccc(C(F)(F)F)c1,,inactive: 11.9%
O=S(=O)(c1ccccc1)N1CCN(C(=S)NCc2ccccc2)CC1,active: 2.08 µM,
COc1ccc(S(=O)(=O)N2CCN(C)CC2)cc1C(=O)Nc1ccccc1,"inconclusive: 11.7 µM [inhibitor, partial curve, poor fit]",
O=[N+]([O-])c1ccc(S(=O)(=O)N(CCCN2CCOCC2)Cc2cccs2)cc1,"inconclusive: 18.5 µM [inhibitor, single point]",
NC(=O)C1CCCN(CCc2ccccc2)C1 (configuration not stated),"inconclusive: 0.0033 µM [inhibitor, full curve, poor fit]",
Cc1ccc(S(=O)(=O)NCC2CCC(C(=O)NCc3cccs3)CC2)cc1 (configuration not stated),active: 10.4 µM,
COc1ccc(C(=O)CC(=O)C(=O)Nc2cccc([N+](=O)[O-])c2C)cc1,"inconclusive: 18.5 µM [inhibitor, single point]",
CCOC(=O)c1[nH]c(C)c(C(=O)N2CCc3c([nH]c4ccccc34)C2c2ccccn2)c1C (configuration not stated),"inconclusive: 10.4 µM [inhibitor, partial curve, poor fit]",
Cc1csc(C(=O)NCC(=O)NNC(=O)c2cccc(Cl)c2)c1,,inactive: 7.09%
Cc1c(C(=O)Nc2cc(S(=O)(=O)N3CCOCC3)ccc2N2CCOCC2)oc2ccccc12,"inconclusive: 3.7 µM [inhibitor, partial curve, poor fit]",
CC(=O)N1CCN(c2ccccc2NC(=S)NC(=O)c2cc3ccccc3o2)CC1,"inconclusive: 10.4 µM [inhibitor, single point]",
CCCn1nc2cc(C(=O)NCc3ccc(C)cc3)ccc2c1OCC,"inconclusive: 4.15 µM [inhibitor, partial curve, poor fit]",
CSc1nsc(SCC(=O)N2CCN(c3ccccc3)CC2)n1,,inactive: 21.6%
CCCCC(=O)NC(c1ccc(Cl)cc1Cl)c1ccc2cccnc2c1O (configuration not stated),,inactive: 14.6%
CN1CCN(C(=O)CNc2ccc(C(F)(F)F)cc2[N+](=O)[O-])CC1,"inconclusive: 18.5 µM [inhibitor, single point]",
CC1=C(/C=C/C(C)=C\C=C\C(C)=C\C=C\C=C(C)\C=C\C=C(C)\C=C\C2=C(C)C[C@@H](O)CC2(C)C)C(C)(C)C[C@H](O)C1,active: 7.57 µM,

# One compound at a time, from the list above.
# O=[N+]([O-])c1ccc(S(=O)(=O)N(CCCN2CCOCC2)Cc2cccs2)cc1 in the list: Potency: inconclusive: 18.5 µM [inhibitor, single point]
# O=C(NC1CCSc2ccccc21)c1cccc(Br)c1 (configuration not stated) in the list: Potency: inconclusive: 20.8 µM [inhibitor, single point]
# COc1ccc(N2CC(C(=O)Nc3nc4ccc(F)cc4s3)CC2=O)c(OC)c1 (configuration not stated) in the list: activity change, negative = inhibition: inactive: -3.79%

# (continued)

SMILES,Potency,"activity change, negative = inhibition"
O=C(CCNC(=O)c1ccccc1Cl)NCCc1ccc(C(F)(F)F)cc1,,inactive: 11.2%
CCC1CCCCN1CCCNC(=O)c1cn(CC)c2ccc(S(=O)(=O)N(C)C3CCCCC3)cc2c1=O (configuration not stated),"inconclusive: 18.5 µM [inhibitor, single point]",
Cc1ccc(NC(=O)Cn2c(=O)n(Cc3ccco3)c(=N)c3c4c(sc32)COC(C)(C)C4)cc1,"inconclusive: 8.28 µM [inhibitor, partial curve, poor fit]",
CC(C)=CCC/C(C)=C/C=C/C(C)=C/C=C/C(C)=C/C=C/C=C(C)/C=C/C=C(C)/C=C/C=C(\C)CCC=C(C)C,"inconclusive: 6.01 µM [inhibitor, partial curve]",
O=C(NCc1nc(-c2ccccc2)no1)Nc1ccc(F)cc1,"inconclusive: 1.31 µM [inhibitor, full curve, poor fit]",
COc1ccc(CCN2C(=O)CC(NCc3ccc4c(c3)OCO4)C2=O)cc1OC (configuration not stated),"inconclusive: 3.29 µM [inhibitor, single point]",
CCN1CCCC1CNC(=O)Cn1nc(C)n2c(cc3cc(F)ccc32)c1=O (configuration not stated),"inconclusive: 18.5 µM [inhibitor, single point]",
O=C(NC1CCCCCC1)C1CCN(S(=O)(=O)c2ccccc2)CC1,active: 2.94 µM,
CCC(CC)C(=O)NCCc1cc2c(OC)ccc(OC)c2[nH]c1=O,,inactive: -4.35%
CCOC(=O)C1=C(N)Oc2ccc3ccccc3c2C1c1cccnc1 (configuration not stated),active: 9.28 µM,
O=c1c2sccc2nc(SCc2cc(=O)n3ccccc3n2)n1Cc1ccccn1,"inconclusive: 18.5 µM [inhibitor, single point]",
Cc1onc(-c2ccccc2)c1C(=O)Nc1sc2c(c1C(N)=O)CCC2,,inactive: -1.72%
COc1ccccc1NS(=O)(=O)c1ccc(N/N=C/C=C/c2ccccc2[N+](=O)[O-])c([N+](=O)[O-])c1,"inconclusive: 3.29 µM [inhibitor, full curve]",
Cc1cc(C)n(C(=O)c2c([N+](=O)[O-])cnn2C)n1,,inactive: 41.2%
Cc1ccc(S(=O)(=O)N2CCN(C(=O)COC(=O)CCOc3ccccc3)CC2)c(C)c1,,inactive: -7.58%
O=C(NCc1ccccn1)C1CCN(S(=O)(=O)N2CCCC2)CC1,,inactive: 12.4%
Cc1c2cnn(-c3ccccc3)c(=O)c2c(C)n1CCCC(=O)N1CCN(C2CCCCC2)CC1,"inconclusive: 11.7 µM [inhibitor, single point]",
CCOC(=O)C1=C(C)Nc2ncnn2C1c1ccccc1F (configuration not stated),"inconclusive: 3.7 µM [inhibitor, partial curve, poor fit]",
CCOCCn1c(=NC(=O)c2ccc(S(=O)(=O)N3CCOCC3)cc2)sc2cc(S(N)(=O)=O)ccc21,active: 6.57 µM,
CNc1nc(N)c([N+](=O)[O-])c(NC2CCCCC2)n1,"inconclusive: 8.28 µM [inhibitor, partial curve, poor fit]",
COc1ccccc1NC(=O)c1ccccc1N(Cc1ccccc1)S(C)(=O)=O,"inconclusive: 18.5 µM [inhibitor, single point]",

# — PubChem BioAssay AID504834 (National Center for Advancing Translational Sciences (NCATS), 2011)
